± gives the standard error. Many of these values have a large error.
B1: glmS ribozyme (parent)
chain: AUAAAAGCGCCAGAACUACAGAAAUGUAGUUGACGAGGAGGAGGUUUAUCGAAUUUUCGGCGGAUGCCUCCAAA

Variants of: B1
Assay: self-cleavage kobs at 2500 uM GlcN6P; higher = faster cleavage; RNA array
Conditions: with glucosamine-6-phosphate
Method in brief: (§1)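 E. coli RNA polymerase transcribed barcoded ribozyme variants in situ on sequenced MiSeq chips, which were tracked via a hybridised Cy3 probe at 37 °C. Tiles were imaged over ~14 h after glucosamine-6-phosphate (40 μM to 10 mM) in HEPES/KCl/Mg(OAc)2 buffer was flowed in. Normalised per-tile medians were fit to one- or two-exponential decays for kobs, and kcat and KM came from weighted Michaelis–Menten fits.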

Row | Variant | self-cleavage kobs at 2500 uM GlcN6P [s⁻¹]
1 | AUAAAAGCGCCAGAACUACAGAAAUGUAGUUGACGAGGAGGAGGUUUAUCGAAUUUUCAGGGGAUGCCUGCAAA [G59A C61G C70G] | 2.02e-05 ± 1.6e-05
2 | AUAAAAGCGCCAGAACUACAGAAAUGUAGUUGACGAGGAGGAGGUUUAUCGAAUUUUCAGCGGAUGCCACCAAA [G59A U69A] | 2.96e-05 ± 2.6e-05
3 | AUAAAAGCGCCAGAACUACAGAAAUGUAGUUGACGAGGAGGAGGUUUAUCGAAUUUUCGACGGAUGGCUCCAAA [G60A C67G] | 1.62e-05 ± 1.5e-05
4 | AUAAAAGCGCCAGAACUACAGAAAUGUAGUUGACGAGGAGGAGGUUUAUCGAAUUUUCGACGGAUGCGUACAAA [G60A C68G C70A] | 3.57e-05 ± 2.3e-05
5 | AUAAAAGCGCCAGAACUACAGAAAUGUAGUUGACGAGGAGGAGGUUUAUCGAAUUUUCGGCAGAUGCCUACAAA [G62A C70A] | 3.84e-05 ± 2.3e-05
6 | AUAAAAGCGCCAGAACUACAGAAAUGUAGUUGACGAGGAGGAGGUUUAUCGAAUUUUCGGCUGAUGCCUGCAAA [G62U C70G] | 1.73e-05 ± 1.7e-05
7 | AUAAAAGCGCCAGAACUACAGAAAUGUAGUUGACGAGGAGGAGGUUUAUCGAAUUUUCGGCGAAUGCCUGGAAA [G63A C70G C71G] | 3.54e-05 ± 2.6e-05
8 | AUAAAAGCGCCAGAACUACAGAAAUGUAGUUGACGAGGAGGAGGUUUAUCGAAUUUUCGGCGAAUGCCUCGAAA [G63A C71G] | 3.57e-05 ± 2.4e-05
9 | AUAAAAGCGCCAGAACUACAGAAAUGUAGUUGACGAGGAGGAGGUUUAUCGAAUUUUCGGCGGCAGCCUCCAAA [A64C U65A] | 3.98e-05 ± 2.4e-05
10 | AUAAAAGCGCCAGAACUACAGAAAUGUAGUUGACGAGGAGGAGGUUUAUCGAAUUUUCGGCGGGGUCCUGCAAA [A64G U65G G66U C70G] | 2.6e-05 ± 2.5e-05
11 | AUAAAAGCGCCAGAACUACAGAAAUGUAGUUGACGAGGAGGAGGUUUAUCGAAUUUUCGGCGGUUGCCUCAAAA [A64U C71A] | 3.36e-05 ± 1.8e-05
12 | AUAAAAGCGCCAGAACUACAGAAAUGUAGUUGACGAGGAGGAGGUUUAUCGAAUUUUCGGCGGAAGGCUCGAAA [U65A C67G C71G] | 3.43e-05 ± 2.4e-05
13 | AUAAAAGCGCCAGAACUACAGAAAUGUAGUUGACGAGGAGGAGGUUUAUCGAAUUUUCGGCGGAUCGCUCCAAA [G66C C67G] | 2.11e-05 ± 1.3e-05
14 | AUAAAAGCGCCAGAACUACAGAAAUGUAGUUGACGAGGAGGAGGUUUAUCGAAUUUUCGGCGGAUUACUGCAAA [G66U C67A C70G] | 2.75e-05 ± 2.6e-05
15 | AUAAAAGCGCCAGAACUACAGAAAUGUAGUUGACGAGGAGGAGGUUUAUCGAAUUUUCGGCGGAUUCGUCAAAA [G66U C68G C71A] | 2.05e-05 ± 2e-05
16 | AUAAAAGCGCCAGAACUACAGAAAUGUAGUUGACGAGGAGGAGGUUUAUCGAAUUUUCGGCGGAUGCAUUCAAA [C68A C70U] | 1.82e-05 ± 1.4e-05

Shown with each value named: entries from further up
AUAAAAGCGCCAGAACUACAGAAAUGUAGUUGACGAGGAGGAGGUUUAUCGAAUUUUCGGCUGAUGCCUGCAAA [G62U C70G]
  self-cleavage kobs at 2500 uM GlcN6P [s⁻¹]: 1.73e-05 ± 1.7e-05
AUAAAAGCGCCAGAACUACAGAAAUGUAGUUGACGAGGAGGAGGUUUAUCGAAUUUUCGGCGAAUGCCUGGAAA [G63A C70G C71G]
  self-cleavage kobs at 2500 uM GlcN6P [s⁻¹]: 3.54e-05 ± 2.6e-05

Variants of: B1
Assay: self-cleavage kobs at 10000 uM GlcN6P; higher = faster cleavage; RNA array
Conditions: with glucosamine-6-phosphate
Method in brief: as §1

Row | Variant | self-cleavage kobs at 10000 uM GlcN6P [s⁻¹]
17 | AUAAAAGCGCCAGAACUACAGAAAUGUAGUUGACGAGGAGGAGGUUUAUCGAAUUUUCGGCGGCAGCCUCCAAA [A64C U65A] | 2.5e-05 ± 1.7e-05
18 | AUAAACGCGCCAGCACUACAGAAAUGUAGUGGACGAGGAGGAGGUUUGUCUAAUUUUUGGAGGAUGCCUCCAAA [A6C A14C U31G A48G G51U C58U C61A] | 2.32e-05 ± 2.2e-05
19 | AUAAACGCGCCAGAACUACAGAAAUGUAGGUCACGAGGAGGAGGGUUAUGGAAUUUUCGUCGGAUGGCUCCAAA [A6C U30G G32C U45G C50G G60U C67G] | 0.000448 ± 0.00023
20 | AUAAAGGCGCCGGAACUACAGAAAUGUAGUUGACGAGGAGGAGGUUUAUCGAAUUUUCGGCGGAUGCCUCCAAA [A6G A12G] | 1.15e-05 ± 9.7e-06
21 | AUAAAGGCGCCAGAACUACAGAAAUGUAGUUGACGAGGAGGAGGUUUAUCGACUUUUCGGCGGAUGCCUCCAAA [A6G A53C] | 3.12e-05 ± 1.6e-05
22 | AUAAAGGCGCCAGAACUACAGAAAUGUAGUUGACGAGGAGGAGGUUUAUCGAAUUUUCGGCGGGUGCCUCCAAA [A6G A64G] | 1.58e-05 ± 1.2e-05
23 | AUAAAGGCGCAAGAACUACAGAAAUGUAGUUGACGAGGAGGAGGUUUAUGGAAUUUUCGGCGGAUGCCUCCAAA [A6G C11A C50G] | 0.000172 ± 0.00012
24 | AUAAAUGCGCCAGAGCUACAGAAAUGUAGUUGACGAGGAGGAGGUUUAUCGAAUUUUCGGCGGAUGACUCUAAA [A6U A15G C67A C71U] | 2.57e-05 ± 2e-05
25 | AUAAAUGCGCCAGAACUACAGAAAUGUAGUUGACGAGGAGGAGGUUUAUCGAAUUUUCGGCGGAUGACUUCAAA [A6U C67A C70U] | 3.54e-05 ± 1.9e-05
26 | AUAAAUGCGCCAGAACUACAGAAAUGUAGUUGACGAGGACGAGGUUUAUCGAAUUUUCGGCGGAUGCCUCCAAA [A6U G40C] | 1.38e-05 ± 1.3e-05
27 | AUAAAUGCGCCAGAACUACAGAAAUGUAGUUGACGAGGAGGAGGUUUAUCGAAUUAUCGGCGGAUGACUCCAAA [A6U U56A C67A] | 3.41e-05 ± 1.8e-05
28 | AUAAAAACGCCCGAACUACAGAAAUGUAGUUGACGAGGAGGAGGUUUAUCGAAUUUUCGGCGGAUGCCUCCAAA [G7A A12C] | 1.04e-05 ± 1e-05
29 | AUAAAAACGCCAGAACUACAGAAAUGUAGUUGACGAGGGGGAGGUUUAUCGAAUUUUCGGCGGAUGCCUCUAAA [G7A A39G C71U] | 2.15e-05 ± 1.4e-05
30 | AUAAAAACGCCAGAACUACAGAAAUGUAGUGGACGAGGAGGAGGUUUAUCGAAUUUUCGGCGGAUGCCUCCAAA [G7A U31G] | 2.19e-05 ± 1.9e-05
31 | AUAAAACCGGCAGAACUACAGAAAUGUAGUUGACGAGGAGGAGGUUUAUCGAAUUUUCGGCGGAUGGCUCCAAA [G7C C10G C67G] | 1.95e-05 ± 1.9e-05
32 | AUAAAAUCGCCAGAACUACAGAAAUGUAGUUGACGAGGAGGAGGUUUAUCGGAUUUUCGGCGGAUGCCUGCAAA [G7U A52G C70G] | 3.88e-05 ± 2.3e-05
33 | AUAAAAUCGCCAGAACUACAGAAAUGUAGUUGACGAGGAGGAGGUUUAUCGAAUUUUCGGCGGAUGCGUCCAAA [G7U C68G] | 0.000435 ± 0.00034
34 | AUAAAAUCGCCAGAACUACAGAAAUGUAGUUGACGAAGAGGAGGUUUAUCGAAUUUUUGGCGGAUGCCGCCAAA [G7U G37A C58U U69G] | 3.26e-05 ± 2.1e-05
35 | AUAAAAGAGCCAGAACUACAGAAAUGUAGUUGACGAGGAGGAGGUUUAUUGAAUUUUCGGCGGAUGUCUGCAAA [C8A C50U C67U C70G] | 3.07e-05 ± 2.3e-05
36 | AUAAAAGAGCCAGAACUACAGAAAUGUAGUUGACGAGGAGGAGGUUUAUCGAAUUUUCGGCGGAUGCCUGCAAA [C8A C70G] | 0.000513 ± 0.00034
37 | AUAAAAGGGGCAGAACUACAGAAAUGUAGUUGGCGAGGAGGAGGUUUAUCGAAUUUUUGGCGGAUGCCUUGAAA [C8G C10G A33G C58U C70U C71G] | 2.77e-05 ± 2.4e-05
